# From the supplement of paper PMC8728848
# This is one part of the list.
# B1: Thrombomodulin Extracellular (Mus musculus), P15306 (protein)
# chain: MLGIFFLGVLAPASLGLSALAKLQPTGSQCVEHECFALFQGPATFLDASQACQRLQGHLMTVRSSVAADVISLLLSQSSMDLGPWIGLQLPQGCDDPVHLGPLRGFQWVTGDNHTSYSRWARPNDQTAPLCGPLCVTVSTATEAAPGEPAWEEKPCETETQGFLCEFYFTASCRPLTVNTRDPEAAHISSTYNTPFGVSGADFQTLPVGSSAAVEPLGLELVCRAPPGTSEGHWAWEATGAWNCSVENGGCEYLCNRSTNEPRCLCPRDMDLQADGRSCARPVVQSCNELCEHFCVSNAEVPGSYSCMCETGYQLAADGHRCEDVDDCKQGPNPCPQLCVNTKGGFECFCYDGYELVDGECVELLDPCFGSNCEFQCQPVSPTDYRCICAPGFAPKPDEPHKCEMFCNETSCPADCDPNSPTVCECPEGFILDEGSVCTDIDECSQGECFTSECRNFPGSYECICGPDTALAGQISKDCDPIPVREDTKEEEGSGEPPVSPTPGSPTGPPSARPVHSGVLIGISIASLSLVVALLALLCHLRKKQGAARAELEYKCASSAKEVVLQHVRTDRTLQKF
# What was measured:
# Assay in all cases: glycan array binding signal (z-score within array); higher = stronger binding
# Conditions in all cases: glycan notation: IUPAC condensed, linker removed
# [1] = target: Gal(b1-4)Glc
# Procedure, shortened: (§1)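 The binding signal is a Z-score computed within each array. Data were drawn from 3228 arrays in the Consortium for Functional Glycomics database, restricted to those with a known protein sequence. Scores were averaged over arrays of the same protein sequence at different concentrations or buffers, and over linkers, and negative values can be taken as non-binding.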
# [2] = target: Gal(b1-4)Glc6S
# Procedure, shortened: as §1
# [3] = target: Gal(b1-4)GlcNAc
# Procedure, shortened: as §1
# [4] = target: Gal(b1-4)GlcNAc(a1-6)Gal(b1-4)GlcNAc
# Procedure, shortened: as §1
# [5] = target: Gal(b1-4)GlcNAc(b1-2)Man
# Procedure, shortened: as §1
# [6] = target: Gal(b1-4)GlcNAc(b1-2)Man(a1-3)Man(b1-4)GlcNAc(b1-4)GlcNAc
# Procedure, shortened: as §1
# [7] = target: Gal(b1-4)GlcNAc(b1-2)Man(a1-3)[Gal(b1-4)GlcNAc(b1-2)Man(a1-6)]Man(b1-4)GlcNAc(b1-4)GlcNAc
# Procedure, shortened: as §1
# [8] = target: Gal(b1-4)GlcNAc(b1-2)Man(a1-3)[Gal(b1-4)GlcNAc(b1-2)Man(a1-6)]Man(b1-4)GlcNAc(b1-4)[Fuc(a1-6)]GlcNAc
# Procedure, shortened: as §1
# [9] = target: Gal(b1-4)GlcNAc(b1-2)Man(a1-3)[Gal(b1-4)GlcNAc(b1-2)Man(a1-6)][Gal(b1-4)GlcNAc(b1-4)]Man(b1-4)GlcNAc(b1-4)[Fuc(a1-6)]GlcNAc
# Procedure, shortened: as §1
# [10] = target: Gal(b1-4)GlcNAc(b1-2)Man(a1-3)[Gal(b1-4)GlcNAc(b1-2)Man(a1-6)][GlcNAc(b1-4)]Man(b1-4)GlcNAc(b1-4)[Fuc(a1-6)]GlcNAc
# Procedure, shortened: as §1
# [11] = target: Gal(b1-4)GlcNAc(b1-2)Man(a1-3)[GlcNAc(b1-2)Man(a1-6)]Man(b1-4)GlcNAc(b1-4)GlcNAc
# Procedure, shortened: as §1
# [12] = target: Gal(b1-4)GlcNAc(b1-2)Man(a1-3)[GlcNAc(b1-4)][Gal(b1-4)GlcNAc(b1-2)Man(a1-6)]Man(b1-4)GlcNAc(b1-4)GlcNAc
# Procedure, shortened: as §1
# [13] = target: Gal(b1-4)GlcNAc(b1-2)Man(a1-3)[Man(a1-6)]Man(b1-4)GlcNAc(b1-4)GlcNAc
# Procedure, shortened: as §1
# [14] = target: Gal(b1-4)GlcNAc(b1-2)Man(a1-6)Man(b1-4)GlcNAc(b1-4)GlcNAc
# Procedure, shortened: as §1
# [15] = target: Gal(b1-4)GlcNAc(b1-2)Man(a1-6)[GlcNAc(b1-2)Man(a1-3)]Man(b1-4)GlcNAc(b1-4)GlcNAc
# Procedure, shortened: as §1
# [16] = target: Gal(b1-4)GlcNAc(b1-2)Man(a1-6)[Man(a1-3)]Man(b1-4)GlcNAc(b1-4)GlcNAc
# Procedure, shortened: as §1
# [17] = target: Gal(b1-4)GlcNAc(b1-2)[Gal(b1-4)GlcNAc(b1-4)]Man(a1-3)[Gal(b1-4)GlcNAc(b1-2)Man(a1-6)]Man(b1-4)GlcNAc(b1-4)GlcNAc
# Procedure, shortened: as §1
# [18] = target: Gal(b1-4)GlcNAc(b1-2)[Gal(b1-4)GlcNAc(b1-4)]Man(a1-3)[Gal(b1-4)GlcNAc(b1-2)[Gal(b1-4)GlcNAc(b1-6)]Man(a1-6)]Man(b1-4)GlcNAc(b1-4)GlcNAc
# Procedure, shortened: as §1
# [19] = target: Gal(b1-4)GlcNAc(b1-2)[Gal(b1-4)GlcNAc(b1-4)]Man(a1-3)[GlcNAc(b1-4)][Gal(b1-4)GlcNAc(b1-2)Man(a1-6)]Man(b1-4)GlcNAc(b1-4)GlcNAc
# Procedure, shortened: as §1
# [20] = target: Gal(b1-4)GlcNAc(b1-2)[Gal(b1-4)GlcNAc(b1-4)]Man(a1-3)[GlcNAc(b1-4)][Gal(b1-4)GlcNAc(b1-2)[Gal(b1-4)GlcNAc(b1-6)]Man(a1-6)]Man(b1-4)GlcNAc(b1-4)GlcNAc
# Procedure, shortened: as §1
# [21] = target: Gal(b1-4)GlcNAc(b1-2)[Gal(b1-4)GlcNAc(b1-6)]Man(a1-6)[Gal(b1-4)GlcNAc(b1-2)Man(a1-3)]Man(b1-4)GlcNAc(b1-4)GlcNAc
# Procedure, shortened: as §1
# [22] = target: Gal(b1-4)GlcNAc(b1-2)[Gal(b1-4)GlcNAc(b1-6)]Man(a1-6)[Gal(b1-4)GlcNAc(b1-2)Man(a1-3)]Man(b1-4)GlcNAc(b1-4)[Fuc(a1-6)]GlcNAc
# Procedure, shortened: as §1
# [23] = target: Gal(b1-4)GlcNAc(b1-2)[Gal(b1-4)GlcNAc(b1-6)]Man(a1-6)[GlcNAc(b1-4)][Gal(b1-4)GlcNAc(b1-2)Man(a1-3)]Man(b1-4)GlcNAc(b1-4)GlcNAc
# Procedure, shortened: as §1
# [24] = target: Gal(b1-4)GlcNAc(b1-2)[Gal(b1-4)GlcNAc(b1-6)]Man(a1-6)[GlcNAc(b1-4)][Gal(b1-4)GlcNAc(b1-2)[Gal(b1-4)GlcNAc(b1-4)]Man(a1-3)]Man(b1-4)GlcNAc(b1-4)[Fuc(a1-6)]GlcNAc
# Procedure, shortened: as §1
# [25] = target: Gal(b1-4)GlcNAc(b1-3)Gal(b1-3)GalNAc
# Procedure, shortened: as §1
# [26] = target: Gal(b1-4)GlcNAc(b1-3)Gal(b1-3)GlcNAc
# Procedure, shortened: as §1
# [27] = target: Gal(b1-4)GlcNAc(b1-3)Gal(b1-4)Glc
# Procedure, shortened: as §1
# [28] = target: Gal(b1-4)GlcNAc(b1-3)Gal(b1-4)GlcNAc
# Procedure, shortened: as §1
# [29] = target: Gal(b1-4)GlcNAc(b1-3)Gal(b1-4)GlcNAc(b1-2)Man(a1-3)[Gal(b1-4)GlcNAc(b1-3)Gal(b1-4)GlcNAc(b1-2)Man(a1-6)]Man(b1-4)GlcNAc(b1-4)GlcNAc
# Procedure, shortened: as §1
# [30] = target: Gal(b1-4)GlcNAc(b1-3)Gal(b1-4)GlcNAc(b1-2)Man(a1-3)[Gal(b1-4)GlcNAc(b1-3)Gal(b1-4)GlcNAc(b1-2)Man(a1-6)]Man(b1-4)GlcNAc(b1-4)[Fuc(a1-6)]GlcNAc
# Procedure, shortened: as §1
binder,measurement,setting,value
B1,glycan array binding signal (z-score),[1],0.133
same,glycan array binding signal (z-score),[2],0.375
same,glycan array binding signal (z-score),[3],0.069
same,glycan array binding signal (z-score),[4],-1.19
same,glycan array binding signal (z-score),[5],0.594
same,glycan array binding signal (z-score),[6],-1.32
same,glycan array binding signal (z-score),[7],-0.43
same,glycan array binding signal (z-score),[8],1.71
same,glycan array binding signal (z-score),[9],-0.094
same,glycan array binding signal (z-score),[10],-0.225
same,glycan array binding signal (z-score),[11],-1.49
same,glycan array binding signal (z-score),[12],-0.475
same,glycan array binding signal (z-score),[13],-0.973
same,glycan array binding signal (z-score),[14],-0.7
same,glycan array binding signal (z-score),[15],0.428
same,glycan array binding signal (z-score),[16],-0.694
same,glycan array binding signal (z-score),[17],1.13
same,glycan array binding signal (z-score),[18],-0.359
same,glycan array binding signal (z-score),[19],0.453
same,glycan array binding signal (z-score),[20],-1.17
same,glycan array binding signal (z-score),[21],0.028
same,glycan array binding signal (z-score),[22],-0.135
same,glycan array binding signal (z-score),[23],-0.69
same,glycan array binding signal (z-score),[24],-0.329
same,glycan array binding signal (z-score),[25],0.085
same,glycan array binding signal (z-score),[26],-2.24
same,glycan array binding signal (z-score),[27],-0.215
same,glycan array binding signal (z-score),[28],-0.512
same,glycan array binding signal (z-score),[29],0.231
same,glycan array binding signal (z-score),[30],0.97

# Given tab-delimited: part of the list above
binder	measurement	setting	value
B1	glycan array binding signal (z-score)	[4]	-1.19
same	glycan array binding signal (z-score)	[5]	0.594
